From article PMC1131895
Results are given in words; binding and its absence hold for the method and conditions named. Binding seen in cells or lysates may run through a third protein.

Protein sequences, listed by entry. Tags and fused reporters are not part of them.
UniProt Q03135: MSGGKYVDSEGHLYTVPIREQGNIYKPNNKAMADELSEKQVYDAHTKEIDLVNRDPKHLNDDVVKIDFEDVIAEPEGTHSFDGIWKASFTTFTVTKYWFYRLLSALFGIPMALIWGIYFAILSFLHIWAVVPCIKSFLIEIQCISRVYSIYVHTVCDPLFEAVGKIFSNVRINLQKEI

Biological target: DsRed-caveolin (DsRed1-cav-1) (UniProt Q03135)
Assay: condition: only unstimulated cells (no Ca2+ ionophore, TPA or bradykinin); FRET or BRET; 2P-FLIM-FRET: lifetime of the GFP donor (two-photon excitation at 850 nm, TCSPC); CHO cells co-expressing GFP-PKC and DsRed-cav, untreated (unstimulated), fixed in 3.7% formaldehyde and mounted

Substance: GFP-tagged protein kinase C alpha (PKCα) (from UniProt P17252 1-672) (enzyme)
- binding: no binding
